No constants are given. Whether binding was seen depends on the method and setting. Some binding calls cover weakened binding; strength is not graded here.
T1: EGL-46 (C. elegans) (UniProt G5EFY4)
T1 sequence: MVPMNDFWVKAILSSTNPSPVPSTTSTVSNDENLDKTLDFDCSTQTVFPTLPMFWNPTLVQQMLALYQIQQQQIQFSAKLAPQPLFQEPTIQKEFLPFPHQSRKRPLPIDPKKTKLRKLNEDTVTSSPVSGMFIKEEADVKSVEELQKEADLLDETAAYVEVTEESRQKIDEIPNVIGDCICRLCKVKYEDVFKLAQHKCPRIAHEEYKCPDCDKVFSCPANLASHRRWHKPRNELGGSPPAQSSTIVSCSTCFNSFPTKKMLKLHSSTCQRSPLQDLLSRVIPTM

T2: EGL-44 (C. elegans) (UniProt Q19849)
T2 sequence: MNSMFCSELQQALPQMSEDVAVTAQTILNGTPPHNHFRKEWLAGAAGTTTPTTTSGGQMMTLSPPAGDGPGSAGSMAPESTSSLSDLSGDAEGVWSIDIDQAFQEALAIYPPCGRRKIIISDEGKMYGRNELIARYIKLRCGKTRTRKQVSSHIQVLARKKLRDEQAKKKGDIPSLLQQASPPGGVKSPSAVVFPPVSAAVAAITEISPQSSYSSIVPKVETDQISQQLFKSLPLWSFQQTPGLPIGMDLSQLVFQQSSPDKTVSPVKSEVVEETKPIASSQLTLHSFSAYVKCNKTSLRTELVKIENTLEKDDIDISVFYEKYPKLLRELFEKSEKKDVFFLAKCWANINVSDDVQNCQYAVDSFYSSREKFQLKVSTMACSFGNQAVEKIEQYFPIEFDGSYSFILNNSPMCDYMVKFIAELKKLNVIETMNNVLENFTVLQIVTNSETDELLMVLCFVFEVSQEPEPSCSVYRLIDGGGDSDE

T3: MEC-3 (C. elegans) (UniProt P09088)
T3 sequence: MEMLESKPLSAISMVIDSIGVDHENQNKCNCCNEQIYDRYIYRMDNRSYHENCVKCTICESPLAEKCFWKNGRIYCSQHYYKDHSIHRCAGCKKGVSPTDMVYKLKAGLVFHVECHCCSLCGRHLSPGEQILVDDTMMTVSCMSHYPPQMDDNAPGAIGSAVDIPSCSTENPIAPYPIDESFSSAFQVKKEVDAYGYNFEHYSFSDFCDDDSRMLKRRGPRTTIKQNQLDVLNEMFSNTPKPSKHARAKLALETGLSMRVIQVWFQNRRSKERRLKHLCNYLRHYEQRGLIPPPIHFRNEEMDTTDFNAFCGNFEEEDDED


What was measured:
Assay in all cases: two-hybrid
[1] = target: T1, EGL-46 (C. elegans)
[2] = target: T2, EGL-44 (C. elegans)
[3] = target: T3, MEC-3 (C. elegans)

binding [1] | binding [2] | binding [3] | Binder
no binding | no binding |  | MEC-3 (protein, UniProt P09088 1-321) MEMLESKPLSAISMVIDSIGVDHENQNKCNCCNEQIYDRYIYRMDNRSYHENCVKCTICESPLAEKCFWKNGRIYCSQHYYKDHSIHRCAGCKKGVSPTDMVYKLKAGLVFHVECHCCSLCGRHLSPGEQILVDDTMMTVSCMSHYPPQMDDNAPGAIGSAVDIPSCSTENPIAPYPIDESFSSAFQVKKEVDAYGYNFEHYSFSDFCDDDSRMLKRRGPRTTIKQNQLDVLNEMFSNTPKPSKHARAKLALETGLSMRVIQVWFQNRRSKERRLKHLCNYLRHYEQRGLIPPPIHFRNEEMDTTDFNAFCGNFEEEDDED
 | binds |  | EGL-46 (protein, UniProt G5EFY4 1-286) MVPMNDFWVKAILSSTNPSPVPSTTSTVSNDENLDKTLDFDCSTQTVFPTLPMFWNPTLVQQMLALYQIQQQQIQFSAKLAPQPLFQEPTIQKEFLPFPHQSRKRPLPIDPKKTKLRKLNEDTVTSSPVSGMFIKEEADVKSVEELQKEADLLDETAAYVEVTEESRQKIDEIPNVIGDCICRLCKVKYEDVFKLAQHKCPRIAHEEYKCPDCDKVFSCPANLASHRRWHKPRNELGGSPPAQSSTIVSCSTCFNSFPTKKMLKLHSSTCQRSPLQDLLSRVIPTM
no binding | no binding | no binding | ZAG-1 (protein, UniProt G5EBU4 1-596) MVDIAEAMPTTASSLPSDEALRKFKCPECTKAFKFKHHLKEHIRIHSGEKPFECQQCHKRFSHSGSYSSHMSSKKCVQQASPSMVTPFNPYQLMMYRNIMLQLQTPQVSFLPSTAANNMDYMSLLQANLFQSLENGTSPTPTQEPSAPASPEPKIEVVDEPEVSSEVKTEVKTEVKTEDSVPEESITPAVSMSLSPAPEQNGNESMNNGGSGSDGKSSPDWRPLRSRSFLNDSQVAVLQNHFKRNPFPSKYELSAVAEQIGVNKRVVQVWFQNTRAKERRSNRLPSMPRGSVASAAAAAATSPTVWQTPVQLMAAWASQFSNGNNSLTASQDERNNENTDEVMDHDGLKDGKETPLDLTLSTDDTEPEWSPEKLIGFLDQTGGVIQELLRQAGNGFVTNQEDEEEKPIKAEESPVSSGSSSIWPSFIGQYPSILDSASLSVLEKALDQQKSSEDDASSLCSNESKLLKFPTTPLKEEEGLFSCDQCDKVFGKQSSLARHKYEHSGQRPYKCDICEKAFKHKHHLTEHKRLHSGEKPFQCDKCLKRFSHSGSYSQHMNHRYSYCKPYREQPASPSDVLNGGSVTVSPSSSNTPPPST

— article doi:10.1101/320978
